# From PubChem BioAssay AID687031 (Broad Institute, 2013)
# About 50 (4%) of roughly 1,400 compounds were called active.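 How the source made its calls: active means fitted curve reaches 30% CPE protection at or below the top valid dose, with every test run called active; inconclusive means test runs disagree, some active and some not; inactive means every test run inactive, including effects in the wrong direction.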 This is one part of the list. Entries with a potency or affinity are not part of this list.
# Assay: antiviral rescue of DENV2-infected BHK-21 cells – cell-based, ATP luminescence, cherry-pick, dose response (AID 687031);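 further: 0% = infected DMSO wells and 100% = uninfected cell wells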
# Details: BHK-21 DENV2 CPE protection, 5 d; at 19.5 µM (top of the series) unless noted
row,Structure (SMILES),CPE protection (higher = active)
1,C[C@@H]1CN([C@H](C)CO)C(=O)c2cc(NC(=O)Nc3ccc(C(F)(F)F)cc3)ccc2O[C@@H](C)CCCCO[C@@H]1CN(C)C(=O)Cc1ccccc1,inactive: 14.1%
2,N#Cc1cc2cc3c(cc2nc1Cl)OCCO3,inactive: -12.1%
3,COc1cccc(-c2nc3nc(C)cc(C)n3c2NC2CCCC2)c1,inactive: -12.1%
4,Cc1ccc(C)c(NC(=O)CN2C(=O)C3CC=CCC3C2=O)c1 (stereo not given),inactive: 22.6%
5,COc1ccc2c3c([nH]c2c1)[C@H](CO)N(C(C)=O)CC31CN(C(=O)c2cccc(F)c2)C1,inactive: 5.35%
6,CN(CC(=O)Nc1ccc(F)c(F)c1F)c1ncnc2sccc12,inactive: 8.14%
7,O=C(N[C@@H]1C=C[C@H](CC(=O)N2CCc3ccccc3C2)O[C@@H]1CO)C1CCC1,inactive: -5.94%
8,COc1ccc(-c2cc(NC=O)c3ncc(-c4cc(OC)c(OC)c(OC)c4)n3c2)c(OC)c1,inactive: -34.4%
9,O=C(c1cccnc1)N1CC2(C1)[C@H](c1ccccc1)[C@@H](CO)N2Cc1ccccc1,inactive: -10.3% [at 21 µM]
10,C[C@@H](NC(=O)c1nc[nH]c1C(=O)N(C)Cc1ccccc1)c1ccccc1,inactive: -2.86%
11,NC(=O)C1CCN(c2nc(-c3ccccc3Br)cs2)CC1,inactive: 7.15%
12,OC(COC(c1ccc(Cl)cc1)c1ccc(Cl)cc1)CN1CCN(c2ccccn2)CC1 (stereo not given),inactive: -5.94%
13,COc1ccc(-c2ccccc2)cc1NC(=O)c1cccs1,inactive: -7.17%
14,COc1ccc(CCN2C(=O)CSCC2(C)C(=O)Nc2ccc3c(c2)OCCO3)cc1OC (stereo not given),inactive: 7.48%
15,CC1(C(=O)NCc2ccccc2)CN(S(C)(=O)=O)CC(=O)N1CCc1ccccc1F (stereo not given),inactive: 12.1%
16,COc1ccc(-n2nnnc2C2(C)CCC(=O)N2Cc2ccccc2)cc1 (stereo not given),inactive: 22.1%
17,Cc1c(Cl)cccc1NC(=O)CNC(=O)C1CC(=O)N(C2CCCC2)C1 (stereo not given),inactive: -7.21%
18,COCCNc1nc(Nc2ccccc2Cl)c2sccc2n1,inactive: -22.3% [at 10 µM]
19,COc1ccc(N2CCN(Cc3nc4c(c(=O)[nH]c(=O)n4C)n3Cc3cccc(Cl)c3)CC2)cc1,inactive: -20.9%
20,CCc1ccc(C(=O)NNC(=O)c2c(CC)noc2C)cc1,inactive: -5.06%
21,COCCNC(=O)C[C@@H]1C[C@H]2c3cc(NC(=O)Nc4ccc(OC)cc4)ccc3O[C@H]2[C@@H](CO)O1,inactive: -17.4%
22,CCOc1ccc(N(CC(=O)NC2CCCC2)S(=O)(=O)c2c(C)[nH]c(=O)[nH]c2=O)cc1,inactive: -1.05%
23,COC(=O)c1cn(C(=O)c2ccc(OC)c(OC)c2)c2ccccc12,inactive: 0.993%
24,CCCCNC(=O)c1ccc(NS(=O)(=O)c2ccc3[nH]c(=O)[nH]c3c2)cc1,inactive: 12.1%
25,Cc1ccc(-c2nc3ccccc3n2C(C(=O)NC(C)(C)C)C2CC2)cc1 (stereo not given),inactive: -3.07%
26,CCCCNC(=O)c1cc2c(C)cc(C)cc2[nH]1,inactive: 16.3%
27,Cc1ccccc1CSc1ccc(-c2ccc3c(c2)OCO3)nn1,inactive: 5.16%

# Of the compounds above, five contain a Cl atom:
row,Structure (SMILES),CPE protection (higher = active)
2,N#Cc1cc2cc3c(cc2nc1Cl)OCCO3,inactive: -12.1%
12,OC(COC(c1ccc(Cl)cc1)c1ccc(Cl)cc1)CN1CCN(c2ccccn2)CC1 (stereo not given),inactive: -5.94%
17,Cc1c(Cl)cccc1NC(=O)CNC(=O)C1CC(=O)N(C2CCCC2)C1 (stereo not given),inactive: -7.21%
18,COCCNc1nc(Nc2ccccc2Cl)c2sccc2n1,inactive: -22.3% [at 10 µM]
19,COc1ccc(N2CCN(Cc3nc4c(c(=O)[nH]c(=O)n4C)n3Cc3cccc(Cl)c3)CC2)cc1,inactive: -20.9%

# More records.

row,Structure (SMILES),CPE protection (higher = active)
1,CCN1CCN(CC(=O)Nc2nc3ccc(C)cc3s2)CC1,inactive: -14% [at 10 µM]
2,Cc1cccc(N(CC(=O)NC2CC2)S(=O)(=O)c2ccc(Cl)cc2)c1,inactive: -5.57%
3,Cc1ccc(NC(=O)C(=O)NCC2CCCN2S(=O)(=O)c2cccs2)cc1 (stereo not given),inactive: 1.19%
4,C[C@@H]1CCCCO[C@H](CN(C)S(=O)(=O)c2ccc(Cl)cc2)[C@H](C)CN([C@H](C)CO)C(=O)c2cc(N(C)C)ccc2O1,inactive: -5.57%
5,C[C@@H]1CN([C@H](C)CO)C(=O)c2cc(NC(=O)c3ccccc3)ccc2O[C@@H](C)CCCCO[C@@H]1CN(C)Cc1ccc(C(=O)O)cc1,inactive: -1.52%
6,COC(=O)C[C@H]1CC[C@H]2[C@@H](COc3ccc(NC(=O)c4cnccn4)cc3C(=O)N2C)O1,inactive: 8.53%
7,Cc1ccc(NC(=O)Cn2cccc2C2=NC(c3ccccc3)CO2)cc1C (stereo not given),inactive: -4.2%
8,CCOC(=O)C[C@H]1c2ccccc2S(=O)(=O)N1c1ccccc1,inactive: -19.3%
9,N#CC(Cc1ccccc1OC(F)F)c1nc2ccccc2[nH]1 (stereo not given),inactive: 18.7%
10,O=C(Nc1ccc(F)cc1)C1CCCN(S(=O)(=O)c2ccc3[nH]c(=O)ccc3c2)C1 (stereo not given),inactive: -1.83%
11,COCC(=O)Nc1ccc2c(c1)C(=O)N(C)[C@@H]1CC[C@@H](CC(=O)NCC(F)(F)F)O[C@@H]1CO2,inactive: 11.1%
12,CCCCN(C(C)=O)c1ccc2c(c1)C1CC2CCN1Cc1ccccc1 (stereo not given),inactive: -36.7%
13,CC(NC(=O)CN1CCN(c2cccc(Cl)c2)CC1)c1ccccc1 (stereo not given),inactive: -0.469%
14,Cc1ccc(C)c(N2CCN(C(=O)CCc3nc(-c4ccccc4)no3)CC2)c1,inactive: -15.2%
15,CCn1cc(C(=O)O)c(=O)c2cc(F)c(N3CCN(C)CC3)cc21,inactive: -4.33%
16,O=C(Cn1cnc2c(NCc3ccccc3)ncnc21)NCC1CCCO1 (stereo not given),inactive: -10.2%
17,COc1ccccc1OCC(=O)Nc1ccc(N2CCOCC2)cc1N1CCOCC1,inactive: -5.59%
18,CN1CCN(C(=O)C[C@@H]2CC[C@@H]3[C@H](COC[C@@H](O)CN3Cc3ccc4c(c3)OCO4)O2)CC1,inactive: -21.5%
19,O=C(COc1ccc2c(-c3ccccc3)cc(=O)oc2c1)NC1CCS(=O)(=O)C1 (stereo not given),inactive: 9.47%
20,CN1C(=O)c2cc(NC(=O)C3CCCC3)ccc2OC[C@H]2O[C@H](CC(=O)NCCc3ccncc3)CC[C@H]21,inactive: 2.49%
21,CCC(=O)N1CC[C@@H]2[C@@H](CO)Nc3ccc(-c4ccc(OC)cc4)cc3[C@@H]21,inactive: -14%
22,CC(C)N(Cc1ccccc1)C(=O)COC(=O)c1cnc(Cl)c(Cl)c1,inactive: -6.48%
23,CCCNC(=O)OC1CC2CC1[C@H]1CCCCN1C2=O (stereo not given in full),inactive: -7.24%
24,CCN(CC)S(=O)(=O)c1cccc(C(=O)NCC2(N3CCOCC3)CCCCC2)c1,inactive: -4.55%
25,CC1CCC(CN2C(Nc3ccccc3)=NC[C@@H]2C)CC1 (stereo not given in full),inactive: -6.41%
26,N#C[C@@H]1[C@H](c2ccc(C#Cc3ccccc3F)cc2)[C@@H](CO)N1C(=O)C1CC1,inactive: -25.3%
27,CCOC(=O)CC[C@H](NC(=O)Cn1cnc2c(OCc3ccccc3)ncnc21)C(=O)OCC,inactive: -6.24%

row,Structure (SMILES),CPE protection (higher = active)
1,CC1(C)CC(=O)N(CC(=O)O)c2ccccc2S1(=O)=O,inactive: -20.4%
2,O=C(O)c1cccc(-c2csc(C(O)c3ccc(F)c(F)c3)n2)c1 (stereo not given),inactive: -18.7%
3,CCN(CC)C1CCN(Cc2c(C(=O)N3CCCCCCC3)nc3ccc(Cl)cn23)C1 (stereo not given),inactive: -11.9%
4,CCOC(=O)c1[nH]c2ccccc2c1NC(=O)c1ccc2c(c1)OCO2,inactive: 0.203%
5,CC(C)CCC(O)(c1ccccc1)C(CN1CCOCC1)c1ccccc1 (stereo not given),inactive: -20.9%
6,Nc1c(-c2ccccc2)nc2ncccn12,inactive: 8.46%
7,O=C(NCc1ccc2c(c1)OCO2)C(=O)NCC1OCCCN1S(=O)(=O)c1ccccc1 (stereo not given),inactive: -15.4%
8,Cc1noc(C)c1NC(=O)Nc1ccc2c(c1)C(=O)N([C@@H](C)CO)C[C@@H](C)[C@@H](CN(C)Cc1ccccc1)OCCCC[C@@H](C)O2,inactive: 18.2%
9,C[C@@H]1CN([C@H](C)CO)C(=O)c2cc(N(C)C)ccc2O[C@@H](C)CCCCO[C@@H]1CN(C)C(=O)CCC(F)(F)F,inactive: 6.42%
10,CCCCN(C(=O)c1ccc2c(c1)NC(=O)CS2)c1ccccc1,inactive: -8.68%
11,c1ccc(-c2cc3ccccc3[nH]2)cc1,inactive: -9.13%
12,Cc1c(C(=O)NCc2ccc(C#N)cc2)sc(=O)n1Cc1ccccn1,inactive: 0.599%
13,COC(=O)C[C@@H]1CC[C@H]2[C@@H](COc3ccc(NC(=O)c4ccc(C(F)(F)F)cc4)cc3C(=O)N2C)O1,inactive: -7.01%
14,CCN(CC)c1ccc2cc(C(=O)NCc3ccc(F)cc3)c(=N)oc2c1,inactive: 2.36%
15,CC(C)(CN1CCN(Cc2ccccc2)CC1)NS(=O)(=O)c1ccc(Cl)cc1,inactive: -31.2%
16,COc1ccc2ccccc2c1-c1sc(Nc2ccccc2)n[n+]1-c1ccc(F)cc1,inactive: -20%
17,CSCCC(NC(=O)COc1ccccc1)C(=O)OCCOc1ccc(C)cc1 (stereo not given),inactive: 16.7%
18,CCCCCCCCN1C(=O)[C@H](CC(=O)NCCC(C)C)C[C@@]2(C(=O)OCC)CCCC=C12,inactive: -35.5%
19,Cc1nc(CCNC(=O)CC2C(=O)NCCN2CC(C)C)nc2c1CCC2 (stereo not given),inactive: 3.16%
20,Cc1cccc(OCC(=O)Nc2ccc(N3CCN(C(=O)c4ccccc4)CC3)cc2)c1C,inactive: -2.19%
21,COc1ccc(-c2oc3ccc(-c4cc(OC)c(OC)c(OC)c4)cc3c2-c2ccc(OC)nc2)cc1,inactive: -12.2%
22,c1ccc(-c2cn(C[C@H]3CC[C@@H]([C@@H]4CC[C@H](Cn5cc(-c6ccccc6)nn5)O4)O3)nn2)cc1,inactive: -14.3%
23,CC(CNC(=O)Cn1ccc(NC(=O)OCc2ccccc2)nc1=O)c1ccccc1 (stereo not given),inactive: -2.22%
24,O=C(c1cc(-c2cccs2)on1)N1CCCc2ccccc21,inactive: 26.9%
25,COc1ccc(C#Cc2ccc([C@H]3[C@@H](CO)N4CCCCN(S(=O)(=O)c5ccccc5)C[C@@H]34)cc2)cc1,inactive: -2.09%
26,C[C@@H]1CN([C@@H](C)CO)C(=O)Cc2cc(NS(=O)(=O)c3cn(C)cn3)ccc2O[C@H]1CN(C)Cc1ccc(C(=O)Nc2ccccc2N)cc1,inactive: 2.37%
